We go through six sequences from the DeepSol protein solubility set.

The data set in a line: soluble on expression in E. coli; label from the status in PepcDB or PDB records.

As to “MKKLPVTVLSGFLGAGKTTLLNHILANRDGLRVALIVNDMSEINIDAALVRDGGANLSRTEEQLVEMTNGCICCTLRDDLLTEVRALAEQGRFDYLLIESTGIAEPLPVAATFDFRDENGRSLSDVAQLDTMVTVVDAANLLNDYGSSDFLADRGETAGDGDNRTIVDLLVEQIEFADVVVLNKIGTATPEERDAARKIIVGLNPDAKLIEADFGKVELKEVLGTGRFDFARAEEHPLWFKELHGFKDHIPETEEYGIRSFVYRAKKPFDPVLFQRFIDRAWPGVVRAKGFFWLATRPRYVGEISQAGALVRTGKMGLWWSAVPREQWPREKQFLDMMEPYLDPTFGDRRQEIVFIGSDPMSEARIRAQLDACLIDTEAFTPDAWRHLPDPFANWDRQAA”, the “soluble on expression in E. coli” value is given as “not soluble”. Next, “MIRFILIQNRAGKTRLAKWYMQFDDDEKQKLIEEVHAVVTVRDAKHTNFVEFRNFKIIYRRYAGLYFCICVDVNDNNLAYLEAIHNFVEVLNEYFHNVCELDLVFNFYKVYTVVDEMFLAGEIRETSQTKVLKQLLMLQSLE”: “soluble”; “MRSDVIKKGIERAPHRSLFKAMGFTDEELERPLIGVANSFNELIPGHIHLRKIAEAVKAGIRMAGGTPLEFNTIGICDGIAMNHLGMKYSLPSRELIADSVELVARVYHFDGIVVIASCDKIIPGMLMAIARLNIPAIFVSGGPMLPGRFKGEYVDVKTVFEAVGAVKAGKMSYEELKLLENFACPGCGSCAGMFTANTMNALTEALGISLPWNGTAPAPYAHRIRIAKETGMQIVKLVEKDVKARDILTREAFEDAIAVDMALGGSTNTVLHLMAIANEAKVDLSLEDFDRISEKTPTLAKLSPAGKHFVVDLYEAGGILGVMKRLSELGLIHEDRLTVSLKTVGELLKSAFVSRDDVIRPVTNPYHPRGGIMILRGTLAPNGAVIKVSAVEGVEVFEGPAKVFDSEEEATAAILSGKIERGDVVVIRYEGPKGGPGMREMLTPTSAIAGMGLDKDVALVTDGRFSGATRGLSVGHVSPEAAEGGPIALVKDGDIIRIDLKNKRIDLLVDEEELRKRREEWKPKVKELTGYLKRYSTLVTSANTGAILRHLEHHHHHH”: “not soluble”. Next, “MPAKAVCVLRGDVSGTVFFDQQDEKSPVVVSGEVQGLTKGKHGFHVHEFGDNTNGCTSAGAHFNPEKQDHGGPSSAVRHVGDLGNIEAIEDAGVTKVSIQDSQISLHGPNSIIGRTLVVHADPDDLGLGGNELSKTTGNAGGRIACGVIGLAKI”: “soluble”; “GSHMPLEFLRNQPQFQQMRQIIQQNPSLLPALLQQIGRENPQLLQQISQHQEHFIQMLNEPVQEAGGQGGGG”: “soluble”. Next, “MPQLLQNINGIIEAFRRYARTEGNCTALTRGELKRLLEQEFADVIVKPHDPATVDEVLRLLDEDHTGTVEFKEFLVLVFKVAQACFKTLSESAEGACGSQESGSLHSGASQELGEGQRSGTEVGRAGKGQHYEGSSHRQSQQGSRGQNRPGVQTQGQATGSAWVSSYDRQAESQSQERISPQIQLSGQTEQTQKAGEGKRNQTTEMRPERQPQTREQDRAHQTGETVTGSGTQTQAGATQTVEQDSSHQTGRTSKQTQEATNDQNRGTETHGQGRSQTSQAVTGGHAQIQAGTHTQTPTQTVEQDSSHQTGSTSTQTQESTNGQNRGTEIHGQGRSQTSQAVTGGHTQIQAGSHTETVEQDRSQTVSHGGAREQGQTQTQPGSGQRWMQVSNPEAGETVPGGQAQTGASTEPGRQEWSSTHPRRCVTEGQGDRQPTVVGEEWVDDHSRETVILRLDQGNLHTSVSSAQGQDAAQSEEKRGITARELYSYLRSTKP”: “soluble”.
